Measurements: patent US20020164333A1, “Bifunctional molecules and vectors complexed therewith for targeted gene delivery” (The Scripps Research Institute, priority 2000, published 2002)
For some assays here: For at least one compound, name, drawing or mass did not settle the structure. Some results were stated once for a whole list of compounds, not compound by compound.

Key:
M21-L12 melanoma cells = test: Ad-mediated gene delivery after pretreatment of cells with PI3K inhibitors; format: cell-based, human; settings: pretreatment of M21-L12 cells with wortmannin
Method: Efficient Ad internalization via αv integrins requires activation of PI3K, a key cellular signaling molecule. […] Ad mediated gene delivery was analyzed 48 hours post infection.

M21-L12 cells = test: Binding of 125I-labeled adenovirus to cells, with competition; format: cell-based, human; settings: 50-fold excess of competitor

Molecule: COC[C@H]1OC(=O)c2coc3c2[C@@]1(C)C1=C(C3=O)[C@@H]2CCC(=O)[C@@]2(C)C[C@H]1OC(C)=O [Wortmannin, wortmannin]
- effect on gene delivery enhanced by DT, DE and DI molecules (M21-L12 melanoma cells): inhibited

B1: recombinant fiber: recombinant Ad5 fiber protein used as competitor (protein)
chain: MKRARPSEDTFNPVYPYDTETGPPTVPFLTPPFVSPNGFQESPPGVLSLRLSEPLVTSNGMLALKMGNGLSLDEAGNLTSQNVTTVSPPLKKTKSNINLEISAPLTVTSEALTVAAAAPLMVAGNTLTMQSQAPLTVHDSKLSIATQGPLTVSEGKLALQTSGPLTTTDSSTLTITASPPLTTATGSLGIDLKEPIYTQNGKLGLKYGAPLHVTDDLNTLTVATGPGVTINNTSLQTKVTGALGFDSQGNMQLNVAGGLRIDSQNRRLILDVSYPFDAQNQLNLRLGQGPLFINSAHNLDINYNKGLYLFTASNNSKKLEVNLSTAKGLMFDATAIAINAGDGLEFGSPNAPNTNPLKTKIGHGLEFDSNKAMVPKLGTGLSFDSTGAITVGNKNNDKLTLWTTPAPSPNCRLNAEKDAKLTLVLTKCGSQILATVSVLAVKGSLAPISGTVQSAHLIIRFDENGVLLNNSFLDPEYWNFRNGDLTEGTAYTNAVGFMPNLSAYPKSHGKTAKSNIVSQVYLNGDKTKPVTLTITLNGTQETGDTTPSAYSMSFSWDWSGHNYINEIFATSSYTFSYIAQE
- blocking of Ad-DT binding to cells (M21-L12 cells): 20-25%
